Data as given in PubChem BioAssay AID1159584 (Peter MacCallum Cancer Centre, 2016).

- Aim: 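Knock-downs that harm CDH1-null cells more than parental MCF10A cells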 (primary screen)
- Cells: human MCF10A breast epithelial cells, parental and CDH1-null
- Reagents: siRNA against human genes
- Read-out: 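ATP luminescence (CellTiter-Glo) viability per line relative to mean mock wells over all plates, and the ratio of CDH1-null to parental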
- Scale: CDH1-null / parental viability ratio: higher = CDH1-null cells survive relatively better than parental; CDH1-null viability vs mock: higher = more viable CDH1-null cells; parental viability vs mock: higher = more viable parental cells
The whole screen tested about 18,000 reagents; below is a part drawn at random. Not given: the amount of reagent, the time to read-out.

target	CDH1-null / parental viability ratio	CDH1-null viability vs mock (fraction of mock)	parental viability vs mock (fraction of mock)
TXNRD2 (GeneID 10587)	0.89	0.66	0.74
NEO1 (GeneID 4756)	1.33	0.73	0.55
C7 (GeneID 730)	0.73	0.59	0.81
BCAP29 (GeneID 55973)	1.06	0.74	0.7
RIOX1 (GeneID 79697)	1.1	0.79	0.72
EPB41L5 (GeneID 57669)	1.21	0.92	0.76
NDP (GeneID 4693)	1.11	0.51	0.46
GARIN3 (GeneID 153745)	1.18	0.87	0.74
GPR84 (GeneID 53831)	1.43	0.5	0.35
WDR81 (GeneID 124997)	0.88	0.74	0.84
NCAPD2 (GeneID 9918)	1.11	0.88	0.79
CCNDBP1 (GeneID 23582)	0.99	0.67	0.68
PRAMEF2 (GeneID 65122)	1.01	0.92	0.91
ZNF536 (GeneID 9745)	0.86	0.76	0.88
TOM1L1 (GeneID 10040)	1.09	1.04	0.95
MFSD1 (GeneID 64747)	1.15	0.98	0.85
NOTUM (GeneID 147111)	0.85	0.9	1.06
CBLC (GeneID 23624)	1.03	0.96	0.93
RNF19B (GeneID 127544)	0.88	0.86	0.98
UBE2QL1 (GeneID 134111)	1.09	0.83	0.76
MCU (GeneID 90550)	1.32	0.66	0.5
SSX2 (GeneID 6757)	0.83	0.72	0.87
TRAPPC10 (GeneID 7109)	1.04	0.94	0.9
KRTAP4-4 (GeneID 84616)	0.91	0.84	0.92
TAF5 (GeneID 6877)	0.96	0.74	0.77
RTBDN (GeneID 83546)	1.02	0.66	0.65
TRMT13 (GeneID 54482)	1	0.8	0.8
TAF1B (GeneID 9014)	0.83	0.58	0.7
TAS2R40 (GeneID 259286)	0.93	0.51	0.55
ASTN1 (GeneID 460)	1.26	0.58	0.46

Part of the list above, set out differently.
CCNDBP1 (GeneID 23582) | CDH1-null / parental viability ratio = 0.99; CDH1-null viability vs mock (fraction of mock) = 0.67; parental viability vs mock (fraction of mock) = 0.68
PRAMEF2 (GeneID 65122) | CDH1-null / parental viability ratio = 1.01; CDH1-null viability vs mock (fraction of mock) = 0.92; parental viability vs mock (fraction of mock) = 0.91
ZNF536 (GeneID 9745) | CDH1-null / parental viability ratio = 0.86; CDH1-null viability vs mock (fraction of mock) = 0.76; parental viability vs mock (fraction of mock) = 0.88
TOM1L1 (GeneID 10040) | CDH1-null / parental viability ratio = 1.09; CDH1-null viability vs mock (fraction of mock) = 1.04; parental viability vs mock (fraction of mock) = 0.95
MFSD1 (GeneID 64747) | CDH1-null / parental viability ratio = 1.15; CDH1-null viability vs mock (fraction of mock) = 0.98; parental viability vs mock (fraction of mock) = 0.85
NOTUM (GeneID 147111) | CDH1-null / parental viability ratio = 0.85; CDH1-null viability vs mock (fraction of mock) = 0.9; parental viability vs mock (fraction of mock) = 1.06
CBLC (GeneID 23624) | CDH1-null / parental viability ratio = 1.03; CDH1-null viability vs mock (fraction of mock) = 0.96; parental viability vs mock (fraction of mock) = 0.93
RNF19B (GeneID 127544) | CDH1-null / parental viability ratio = 0.88; CDH1-null viability vs mock (fraction of mock) = 0.86; parental viability vs mock (fraction of mock) = 0.98
UBE2QL1 (GeneID 134111) | CDH1-null / parental viability ratio = 1.09; CDH1-null viability vs mock (fraction of mock) = 0.83; parental viability vs mock (fraction of mock) = 0.76
MCU (GeneID 90550) | CDH1-null / parental viability ratio = 1.32; CDH1-null viability vs mock (fraction of mock) = 0.66; parental viability vs mock (fraction of mock) = 0.5
SSX2 (GeneID 6757) | CDH1-null / parental viability ratio = 0.83; CDH1-null viability vs mock (fraction of mock) = 0.72; parental viability vs mock (fraction of mock) = 0.87

Next results follow:
target	CDH1-null / parental viability ratio	CDH1-null viability vs mock (fraction of mock)	parental viability vs mock (fraction of mock)
KDM5D (GeneID 8284)	0.93	0.78	0.84
PHF20 (GeneID 51230)	0.96	0.97	1.01
H2AC15 (GeneID 8330)	0.77	0.61	0.79
ARMC8 (GeneID 25852)	0.85	0.71	0.84
DKK3 (GeneID 27122)	0.96	0.52	0.54
SHC4 (GeneID 399694)	0.93	0.95	1.02
PDGFRB (GeneID 5159)	1	0.8	0.8
SERAC1 (GeneID 84947)	0.9	0.74	0.82
KRT33A (GeneID 3883)	1.15	0.6	0.52
COQ6 (GeneID 51004)	0.97	0.87	0.9
RRP1B (GeneID 23076)	1.02	0.94	0.92
PCDHGA4 (GeneID 56111)	1.23	1.12	0.91
CTDP1 (GeneID 9150)	1.33	0.8	0.6
ADTRP (GeneID 84830)	1.22	0.73	0.6
CPNE6 (GeneID 9362)	0.85	0.68	0.8
OR2AG2 (GeneID 338755)	1.15	0.68	0.59
USP15 (GeneID 9958)	1.13	0.68	0.6
SLC26A9 (GeneID 115019)	0.88	0.77	0.88
TFF3 (GeneID 7033)	1.05	1.07	1.02
KAT2A (GeneID 2648)	0.84	0.77	0.92
LCN8 (GeneID 138307)	0.89	0.64	0.72
CHD2 (GeneID 1106)	0.95	0.84	0.88
KIR3DP1 (GeneID 548594)	0.85	0.51	0.6
GTPBP8 (GeneID 29083)	1.05	0.9	0.86
ADRA1A (GeneID 148)	0.9	0.79	0.88
CCL24 (GeneID 6369)	1.47	0.59	0.4
SEMA3B (GeneID 7869)	1.08	0.71	0.66
ALAS1 (GeneID 211)	1.11	0.8	0.72
PITPNM2 (GeneID 57605)	1.04	0.86	0.83
RPS6KA5 (GeneID 9252)	0.93	0.8	0.86
PDE5A (GeneID 8654)	1.02	1.12	1.1
CARM1 (GeneID 10498)	1.07	0.88	0.82
RP1 (GeneID 6101)	0.92	0.46	0.5
HLX (GeneID 3142)	0.88	0.72	0.82
OR5AK2 (GeneID 390181)	1.26	0.96	0.76
GPR15LG (GeneID 387695)	1.11	0.8	0.72
BOLA2 (GeneID 552900)	1.13	0.76	0.67
NUDC (GeneID 10726)	0.87	0.86	0.99
